PubChem BioAssay AID652259 – Drosophila RNAi Screening Center, 2013

Aim: 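Identify new Wingless signalling regulators in fly cells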 (primary screen)
Cells: Drosophila clone 8 imaginal disc epithelial cells
Reagent: long dsRNA against Drosophila genes
Treatment: pathway stimulated by co-transfected Wingless expression plasmid
Measured: 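Dual luciferase reads per well after Wingless plasmid stimulation: reporter firefly light and Renilla control light; activity is firefly divided by Renilla, a ratio not deposited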
Reading the numbers: firefly reporter light: higher = more Wg reporter light, before normalisation; Renilla control light: higher = more transfected or surviving cells
Active means: 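a knock-down is a candidate when at least two out of four statistical tests show it departing from its plate mean; one test alone signals a weak candidate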
Calls: active = candidate regulator (raises or lowers reporter); inactive = not a candidate
The screen tested about 22,000 reagents; below is a random part of those that have a named target and a result. In the full data, 233 (1.1%) were called active. 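Light values are raw, unnormalised plate reads; the ratio scores behind the reporter calls were not deposited.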 Entries without a mark were called inactive. The numbers tell different reagents against one gene apart. Names joined by + are all predicted targets of the reagent. The record does not give: the amount of reagent, the time to read-out, the dose of the treatment.

The opening 3 records as a preview:
tral (GeneID 39430)
- firefly reporter light, replicate 1: 2280
- Renilla control light, replicate 1: 1189

Hcf (GeneID 43788)
- firefly reporter light, replicate 1: 2684
- firefly reporter light, replicate 2: 5409
- Renilla control light, replicate 1: 1152
- Renilla control light, replicate 2: 2021

CG34164 (GeneID 5740394)
- firefly reporter light, replicate 1: 2822
- firefly reporter light, replicate 2: 5751
- Renilla control light, replicate 1: 1058
- Renilla control light, replicate 2: 2339

Results, from the start:
tral (GeneID 39430)
- firefly reporter light, replicate 1: 2280
- Renilla control light, replicate 1: 1189

Hcf (GeneID 43788)
- firefly reporter light, replicate 1: 2684
- firefly reporter light, replicate 2: 5409
- Renilla control light, replicate 1: 1152
- Renilla control light, replicate 2: 2021

CG34164 (GeneID 5740394)
- firefly reporter light, replicate 1: 2822
- firefly reporter light, replicate 2: 5751
- Renilla control light, replicate 1: 1058
- Renilla control light, replicate 2: 2339

CG8960 (GeneID 38280)
- firefly reporter light, replicate 1: 17364
- Renilla control light, replicate 1: 4272

Pbp95 (GeneID 40949)
- firefly reporter light, replicate 1: 10358
- Renilla control light, replicate 1: 3083

C15 (GeneID 42544) #1
- firefly reporter light, replicate 1: 1958
- Renilla control light, replicate 1: 1396

C15 (GeneID 42544) #2
- firefly reporter light, replicate 1: 33815
- Renilla control light, replicate 1: 7404

cuff (GeneID 36269)
- firefly reporter light, replicate 1: 7970
- Renilla control light, replicate 1: 3600

CG30398 (GeneID 246591)
- firefly reporter light, replicate 1: 16424
- Renilla control light, replicate 1: 8849

CG17290 (GeneID 36938)
- firefly reporter light, replicate 1: 7777
- Renilla control light, replicate 1: 2077

Rpt1 (GeneID 35701)
- firefly reporter light, replicate 1: 7220
- Renilla control light, replicate 1: 769

Loxl2 (GeneID 37485)
- firefly reporter light, replicate 1: 12269
- Renilla control light, replicate 1: 3658

CG13920 (GeneID 38203)
- firefly reporter light, replicate 1: 17552
- Renilla control light, replicate 1: 5056

Tsen34 + Trl
- firefly reporter light, replicate 1: 7501
- Renilla control light, replicate 1: 2236

hrm (GeneID 35499)
- firefly reporter light, replicate 1: 2199
- firefly reporter light, replicate 2: 6810
- Renilla control light, replicate 1: 856
- Renilla control light, replicate 2: 2262

Nplp3 (GeneID 59235)
- firefly reporter light, replicate 1: 7408
- Renilla control light, replicate 1: 3609

CG30485 (GeneID 246644)
- firefly reporter light, replicate 1: 6104
- Renilla control light, replicate 1: 2109

beta-Man (GeneID 40524) #1
- firefly reporter light, replicate 1: 9836
- Renilla control light, replicate 1: 3031

beta-Man (GeneID 40524) #2
- firefly reporter light, replicate 1: 18023
- Renilla control light, replicate 1: 5462

Bka (GeneID 46032)
- firefly reporter light, replicate 1: 1533
- firefly reporter light, replicate 2: 5298
- Renilla control light, replicate 1: 672
- Renilla control light, replicate 2: 2898

CG4896 (GeneID 33305)
- firefly reporter light, replicate 1: 7729
- Renilla control light, replicate 1: 4051

CG14957 (GeneID 38386)
- firefly reporter light, replicate 1: 6437
- Renilla control light, replicate 1: 2953

Mal-A3 (GeneID 35826)
- firefly reporter light, replicate 1: 2263
- firefly reporter light, replicate 2: 5336
- Renilla control light, replicate 1: 657
- Renilla control light, replicate 2: 1744

Tmem131 (GeneID 36761)
- firefly reporter light, replicate 1: 14464
- Renilla control light, replicate 1: 3344

Pdh (GeneID 39812)
- firefly reporter light, replicate 1: 2816
- Renilla control light, replicate 1: 1465
